A short description of the test: qHTS Assay for Modulators of Lamin A Splicing. As to conditions: HeLa LMNA splicing GFP/RFP minigene ratio, 48 h. The method, boiled down: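 Read-out is the ratio of GFP to DsRed2 object intensity, acquired by 488 nm laser-scanning cytometry on HeLa lamin A-EGFP minigene reporter cells. Compound incubation 48 hrs at 37 °C in Opti-MEM with 2% FBS; DMSO 0.5% final.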
In general terms: Quantitative high-throughput screening tests each substance at several concentrations.

[1] abbreviates: measured here: GFP splicing reporter channel.
[2] abbreviates: measured here: RFP viability control channel.

Each structure is given as a SMILES string. Values joined by “and” are separate entries in the source; they are usually repeats but may differ in a detail not shown here. Identical values can stand only once. The list shows a part of the results. Further columns of the screen follow, without active or inactive calls. Compounds called inactive in the main read-out are mostly missing here. Words in brackets tell the shape of the fitted curve; partial curves, single points and poor fits give uncertain potencies.

By AC50 is commonly meant the concentration at which the activity in the assay is half-maximal.

As to `O=C(N/N=C/c1ccc(OC(F)F)cc1)c1cccc(S(=O)(=O)N2CCOCC2)c1`, the AC50 under setting [1] is 3.98 µM [falling, partial curve, poor fit] and the AC50 under setting [2] was 6.31 µM [falling, partial curve].

In the case of `Cc1ccc(-n2ncc3c(Nc4ccc(Oc5ccccc5)cc4)ncnc32)c(C)c1`, under setting [2], the AC50 is 6.31 µM [falling, partial curve, poor fit]. On to `CCOC(=O)C1CCCN(C(=O)C2CCN(c3nnc(-n4cccc4)s3)CC2)C1` (centres undefined), for which the AC50 under setting [2] was 0.0891 µM [falling, single point]. Same read-out and setting: to `Clc1cccc(CN2COc3c(cc(Cl)c4cccnc34)C2)c1` belongs 35.5 µM [rising, single point]. As for `CC(C)c1ccc2[nH]c(O)c(N=NC(=O)c3cccc(S(=O)(=O)N4CCCCC4)c3)c2c1`, the concentration at half-maximal activity (AC50) reads like this: under setting [1], 1.26 µM [rising, full curve]; under setting [2], 15.8 µM [rising, partial curve, poor fit]. As to `Cc1ccc(NC(=O)NC2=NN(c3ccccc3)C(=O)/C2=C2/CCCN2C)cc1`, the AC50 under setting [2] is 12.6 µM [rising, partial curve, poor fit]. For the compound `Cc1cc(Nc2cccc(C(F)(F)F)c2)nc2ccc(NC(=O)Cc3ccc(Cl)cc3)cc12`, the concentration at half-maximal activity (AC50) reads like this: under setting [1], 22.4 µM [falling, partial curve]; under setting [2], 35.5 µM [falling, single point]. `CCOC(=O)N1CCN(S(=O)(=O)c2ccc(C)cc2)C1c1ccc(OC)cc1` (centres undefined): the AC50 under setting [2] was 22.4 µM [rising, single point]. On the same count and under the same terms, the result for `Cc1cc(=O)n(Cc2cccc(Cl)c2)c2c1c(C)nn2C` reads 0.00316 µM [falling, full curve, poor fit]. For `COc1ccc(OC)c(NS(=O)(=O)c2ccc(NC(=O)c3ccc(NS(C)(=O)=O)cc3)cc2)c1`, the AC50 under setting [1] is 8.91 µM [rising, partial curve] and the AC50 under setting [2] was 14.1 µM [rising, partial curve]. On to `O=C1CC(SC(=Nc2ccccc2)Nc2ccccc2)C(=O)N1c1cccc(Cl)c1` (centres undefined), for which the AC50 under setting [1] is 35.5 µM [falling, single point] and the AC50 under setting [2] is 35.5 µM [falling, single point]. `CC(C)(C)NC(=O)[C@@H]1C[C@@H]2CCCC[C@@H]2CN1C[C@@H](O)[C@H](Cc1ccccc1)NC(=O)[C@H](CC(N)=O)NC(=O)c1ccc2ccccc2n1`: the AC50 under setting [1] was 14.1 µM [rising, partial curve] and the AC50 under setting [2] was 12.6 µM [rising, partial curve]. On to `Cc1nn(Cc2ccc(Cl)cc2)c(C)c1NC(=O)/C=C/c1cnn(C)c1`, for which the AC50 is, setting by setting: under setting [1], 10 µM [rising, partial curve]; under setting [2], 11.2 µM [rising, partial curve]. In the case of `CCC(c1nnnn1CCOC)N1CCN(c2nc3ccccc3s2)CC1` (centres undefined), under setting [2], the half-maximal activity concentration (AC50) was 1.12 µM [falling, partial curve]. For `CCCCCN(CCCCC)C(=O)C(CCC(=O)O)NC(=O)c1ccc(Cl)c(Cl)c1` (centres undefined), the AC50 is, setting by setting: under setting [1], 35.5 µM [falling, single point]; under setting [2], 35.5 µM [falling, single point] and 63.1 nM [rising, full curve, poor fit]. For the compound `CN1CCN(C(=O)c2ccc3c(=O)n4c(nc3c2)CCCCC4)CC1`, the AC50 under setting [2] was 0.178 µM [falling, full curve, poor fit]. Take `COc1ccc(-n2nc(C(=O)NCC(=O)Nc3cccc(NC(C)=O)c3)c3ccccc3c2=O)cc1`: under setting [1], the AC50 is 0.158 µM [falling, full curve, poor fit]. For `CCCc1ccc(OCC(=O)Nc2cc(S(=O)(=O)CC)ccc2O)cc1`, the AC50 by setting is: under setting [1], 11.2 µM [falling, single point]; under setting [2], 5.62 µM [falling, partial curve]. In the case of `O=C(CC1(O)C(=O)Nc2ccccc21)c1ccc(-n2cnnn2)cc1` (centres undefined), the AC50 is 0.501 µM [rising, single point] under setting [1] and 0.631 µM [rising, single point] under setting [2].

`COc1cc(C2C(C(=O)/C=C/c3ccccc3)=C(O)C(=O)N2c2ccccn2)ccc1O` (centres undefined): the AC50 under setting [1] was 12.6 µM [falling, single point].

`COc1ccc2nc(Nc3nc(CSc4ccc(C)cc4)cc(=O)[nH]3)nc(C)c2c1`: the concentration at half-maximal activity (AC50) under setting [1] is 20 µM [falling, partial curve, poor fit]. In the case of `CCOc1ccc(-n2c(SCc3ccccc3)nc3c([nH]c4ccccc43)c2=O)cc1`, the AC50 under setting [1] is 35.5 µM [falling, single point] and the AC50 under setting [2] is 35.5 µM [falling, single point]. Take `COc1ccccc1NC(=O)COC(=O)c1ccc2c(c1)nc(C)n2-c1ccccc1`: the AC50 under setting [2] was 0.631 µM [rising, full curve, poor fit]. As to `CN1CCN(C(CNC(=O)C(=O)Nc2ccc(Cl)cc2)c2cccnc2)CC1` (centres undefined), the AC50 by setting is: under setting [1], 35.5 µM [falling, single point]; under setting [2], 35.5 µM [falling, single point]. Turning to `O=C(COC(=O)c1c[nH]c(=O)[nH]c1=O)Nc1ccccc1`, the AC50 under setting [1] is 14.1 µM [falling, single point]. Consider `O=C(Nc1ccccc1)c1cnc(-c2ccccc2)nc1-c1ccccc1`, for which the AC50 was 28.2 µM [falling, single point] under setting [1] and 35.5 µM [falling, single point] under setting [2]. For `N#CC1=C(N)NC(SCC(=O)c2ccc(Br)cc2)=C(C#N)C12CCCCC2`, the AC50 runs as follows: under setting [1], 8.91 µM [rising, partial curve, poor fit]; under setting [2], 17.8 µM [rising, single point]. On to `CCOC(=O)c1ccc(NC(=O)c2c(NCc3sccc3C)sc3c2CCC(C)C3)cc1` (centres undefined), for which the AC50 reads like this: under setting [1], 0.00355 µM [rising, full curve, poor fit]; under setting [2], 22.4 µM [rising, partial curve]. On to `Cc1nn(CCO)c2nc(-c3cccs3)cc(C(F)(F)F)c12`, for which the AC50 by setting is: under setting [1], 7.94 µM [rising, partial curve, poor fit]; under setting [2], 0.891 µM [rising, partial curve]. Turning to `N#CCCn1c(=O)c(-c2ccccc2)nc2cnc(Nc3ccccc3)nc21`, the AC50 under setting [1] is 11.2 µM [falling, partial curve] and the AC50 under setting [2] was 11.2 µM [falling, partial curve]. On to `O=C(/C=C/c1ccc(S(=O)(=O)N2CCOCC2)cc1)NCc1ccc(Cl)cc1`, for which the AC50 is, setting by setting: under setting [1], 15.8 µM [rising, single point]; under setting [2], 11.2 µM [rising, partial curve].

Consider `COc1ccc(F)cc1S(=O)(=O)NCC(c1ccco1)S(=O)(=O)c1cccs1` (centres undefined), for which the AC50 under setting [1] was 0.0708 µM [falling, partial curve, poor fit]. On to `CCOc1ccc(N2C(=O)CC(N(C)Cc3ccccc3)C2=O)cc1` (centres undefined), for which the AC50 is, setting by setting: under setting [1], 0.562 µM [falling, full curve, poor fit]; under setting [2], 0.0562 µM [falling, full curve, poor fit]. In the case of `COc1ccc(-c2ccc(C3C(C#N)=C(N)Oc4n[nH]c(C)c43)o2)cc1` (centres undefined), the AC50 reads like this: under setting [1], 22.4 µM [falling, single point]; under setting [2], 31.6 µM [falling, single point]. For `CCCCCCCCCC[n+]1cccc(C(=O)N(CC)CC)c1`, the AC50 was 10 µM [rising, partial curve] under setting [1] and 15.8 µM [rising, partial curve] under setting [2]. Consider `Cc1ccc(C(=O)Nc2ccc(N3CCCC3)cc2)cc1`, for which the concentration at half-maximal activity (AC50) was 10 µM [falling, partial curve] under setting [1] and 7.08 µM [falling, full curve, poor fit] under setting [2]. Consider `COc1ccc(NC(=S)N(CCCN2CCOCC2)Cc2cn(C)c3ccccc23)cc1OC`, for which the AC50 under setting [2] was 17.8 µM [rising, partial curve, poor fit]. `CCCN(CC(=O)Nc1cc(Cl)cc(Cl)c1)CC(=O)Nc1ccc(F)c(F)c1F`: the AC50 reads like this: under setting [1], 12.6 µM [falling, partial curve]; under setting [2], 11.2 µM [falling, single point]. As to `CNCCCC1c2ccccc2C=Cc2ccccc21`, the AC50 reads like this: under setting [1], 10 µM [rising, partial curve, poor fit] and 35.5 µM [falling, single point] and 35.5 µM [rising, single point]; under setting [2], 7.08 nM [rising, full curve, poor fit] and 5.01 µM [falling, full curve, poor fit]. Consider `COC(=O)c1ccccc1NC(=O)c1ccccc1OC`, for which the AC50 under setting [1] was 14.1 µM [rising, partial curve, poor fit]. Regarding `COc1cccc(-c2cncnc2NCc2ccc(OC)cc2OC)c1`, the AC50 under setting [1] is 14.1 µM [falling, partial curve]. As to `Cn1c(=O)c(C(=O)Nc2ncccn2)c(O)c2ccccc21`, the AC50 under setting [2] was 1.41 µM [rising, partial curve].

Consider `COc1cc(C2C(=O)N(C3CCCCCC3)CC(=O)N2CCC2=CCCCC2)ccc1OC(C)C` (centres undefined), for which the AC50 under setting [2] is 20 µM [rising, single point].

As to `CC1(C)C2CC=C(/C=N/NC(=S)Nc3cccnc3)C1C2` (centres undefined), the AC50 under setting [2] was 14.1 µM [falling, single point]. Regarding `Cc1ccsc1/C=N\NC(=O)c1ccc2c(c1)OCO2`, the AC50 under setting [1] is 12.6 µM [rising, partial curve]. Consider `COc1ccccc1NC1SC(=O)N(c2ccccc2)C1=O` (centres undefined), for which the concentration at half-maximal activity (AC50) under setting [2] was 5.62 µM [rising, single point]. Take `CCOC(=O)Cc1cc(=O)n(-c2nc3ccccc3s2)[nH]1`: the AC50 by setting is: under setting [1], 14.1 µM [falling, single point]; under setting [2], 10 µM [falling, partial curve]. Regarding `CC1CCN(C2=C(NS(=O)(=O)c3ccc(Cl)cc3)C(=O)c3ccccc3C2=O)CC1`, under setting [2], the AC50 is 12.6 µM [rising, partial curve]. Same read-out and setting: to `Cc1c(/C=N\NC(=O)c2ccc(F)cc2)cnn1C` belongs 0.562 µM [falling, partial curve].

These data come from PubChem BioAssay AID1487 (National Center for Advancing Translational Sciences (NCATS), 2009).
